No constants are given. Whether binding was seen depends on the method and setting. Binding seen in cells or lysates may run through a third protein. Some entries that bind do so weakly or less than the wild type. One block for each substance: values may come before it.
What was measured:
HA-SIRT7 (human) [1] = molecular target: HA-SIRT7 (human) (UniProt Q9NRC8); experiment: co-IP; tagged proteins expressed by transfection (HEK293), precipitated by the tag (anti-FLAG or anti-HA); lysis buffer 25 mM Tris-HCl pH 7.4, 150 mM NaCl, 1% NP-40, 1 mM EDTA; some panels with co-expressed SIRT7-WT, 2A or 2E, or EGF 5 ng/ml
[2] = molecular target: SKP2 (in cell lysate, untagged) (UniProt Q13309); experiment: co-IP; proteins of untransfected cell lysates precipitated with anti-SIRT7, anti-GSK3β or anti-SKP2 antibody; lysis buffer 25 mM Tris-HCl pH 7.4, 150 mM NaCl, 1% NP-40, 1 mM EDTA; cells treated in some panels (glucose starvation 1 h, Compound C 5 µM, GSK3β or ERK2 knock-down, LiCl)
[3] = molecular target: UBR5 (in cell lysate, with endogenous SIRT7) (UniProt O95071); experiment: as above
[4] = molecular target: glycogen synthase kinase 3β (endogenous) (human (endogenous in HEK293)) (UniProt P49841); experiment: as above
FLAG-SKP2 = FLAG-SKP2 (UniProt Q13309); experiment: co-IP; tagged proteins expressed by transfection (HEK293), precipitated by the tag (anti-FLAG or anti-HA); lysis buffer 25 mM Tris-HCl pH 7.4, 150 mM NaCl, 1% NP-40, 1 mM EDTA; some panels with co-expressed SIRT7-WT, 2A or 2E, or EGF 5 ng/ml
[5] = molecular target: SKP2 (in transfected HEK293 cells, construct not stated) (UniProt Q13309); experiment: as above
FLAG-UBR5 = FLAG-UBR5 (UniProt O95071); experiment: as above
[6] = molecular target: GSK3β (in transfected HEK293 cells, construct not stated) (UniProt P49841); experiment: as above
HA-SIRT7 (human) [7] = molecular target: HA-SIRT7 (human) (UniProt Q9NRC8); experiment: co-IP; sequential immunoprecipitations with anti-HA and anti-FLAG antibodies from HEK293 cells co-expressing HA-SIRT7 and Flag-AMPK
[8] = molecular target: SIRT7 (endogenous) (human (endogenous in HEK293)) (UniProt Q9NRC8); experiment: co-IP; proteins of untransfected cell lysates precipitated with anti-SIRT7, anti-GSK3β or anti-SKP2 antibody; lysis buffer 25 mM Tris-HCl pH 7.4, 150 mM NaCl, 1% NP-40, 1 mM EDTA; cells treated in some panels (glucose starvation 1 h, Compound C 5 µM, GSK3β or ERK2 knock-down, LiCl)

Sequences of proteins named here, by UniProt entry; tags and fusion partners are left off. A change or cut given only in a name is not applied to a line headed by its entry.
UniProt Q9NRC8: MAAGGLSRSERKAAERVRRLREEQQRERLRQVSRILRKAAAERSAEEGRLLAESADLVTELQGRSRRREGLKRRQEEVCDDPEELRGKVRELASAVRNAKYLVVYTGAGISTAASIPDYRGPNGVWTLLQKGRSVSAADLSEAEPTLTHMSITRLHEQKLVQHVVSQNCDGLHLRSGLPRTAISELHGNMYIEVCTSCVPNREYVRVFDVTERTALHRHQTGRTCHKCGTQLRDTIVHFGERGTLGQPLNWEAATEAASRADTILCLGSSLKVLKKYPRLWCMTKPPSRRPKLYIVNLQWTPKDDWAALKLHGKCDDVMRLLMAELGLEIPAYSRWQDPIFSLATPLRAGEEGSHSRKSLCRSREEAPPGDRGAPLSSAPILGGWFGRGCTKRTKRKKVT
UniProt Q13309: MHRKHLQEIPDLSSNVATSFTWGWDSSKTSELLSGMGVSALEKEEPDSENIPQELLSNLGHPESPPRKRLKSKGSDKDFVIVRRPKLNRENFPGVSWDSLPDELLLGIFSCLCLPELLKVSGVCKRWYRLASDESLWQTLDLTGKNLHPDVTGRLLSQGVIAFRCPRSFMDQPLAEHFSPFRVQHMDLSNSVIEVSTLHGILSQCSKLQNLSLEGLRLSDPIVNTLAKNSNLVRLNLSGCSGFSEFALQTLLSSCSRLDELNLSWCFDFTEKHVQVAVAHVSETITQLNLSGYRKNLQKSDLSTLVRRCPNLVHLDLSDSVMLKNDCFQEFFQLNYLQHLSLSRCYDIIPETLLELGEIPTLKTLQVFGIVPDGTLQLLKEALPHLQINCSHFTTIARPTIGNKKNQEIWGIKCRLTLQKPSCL
UniProt O95071: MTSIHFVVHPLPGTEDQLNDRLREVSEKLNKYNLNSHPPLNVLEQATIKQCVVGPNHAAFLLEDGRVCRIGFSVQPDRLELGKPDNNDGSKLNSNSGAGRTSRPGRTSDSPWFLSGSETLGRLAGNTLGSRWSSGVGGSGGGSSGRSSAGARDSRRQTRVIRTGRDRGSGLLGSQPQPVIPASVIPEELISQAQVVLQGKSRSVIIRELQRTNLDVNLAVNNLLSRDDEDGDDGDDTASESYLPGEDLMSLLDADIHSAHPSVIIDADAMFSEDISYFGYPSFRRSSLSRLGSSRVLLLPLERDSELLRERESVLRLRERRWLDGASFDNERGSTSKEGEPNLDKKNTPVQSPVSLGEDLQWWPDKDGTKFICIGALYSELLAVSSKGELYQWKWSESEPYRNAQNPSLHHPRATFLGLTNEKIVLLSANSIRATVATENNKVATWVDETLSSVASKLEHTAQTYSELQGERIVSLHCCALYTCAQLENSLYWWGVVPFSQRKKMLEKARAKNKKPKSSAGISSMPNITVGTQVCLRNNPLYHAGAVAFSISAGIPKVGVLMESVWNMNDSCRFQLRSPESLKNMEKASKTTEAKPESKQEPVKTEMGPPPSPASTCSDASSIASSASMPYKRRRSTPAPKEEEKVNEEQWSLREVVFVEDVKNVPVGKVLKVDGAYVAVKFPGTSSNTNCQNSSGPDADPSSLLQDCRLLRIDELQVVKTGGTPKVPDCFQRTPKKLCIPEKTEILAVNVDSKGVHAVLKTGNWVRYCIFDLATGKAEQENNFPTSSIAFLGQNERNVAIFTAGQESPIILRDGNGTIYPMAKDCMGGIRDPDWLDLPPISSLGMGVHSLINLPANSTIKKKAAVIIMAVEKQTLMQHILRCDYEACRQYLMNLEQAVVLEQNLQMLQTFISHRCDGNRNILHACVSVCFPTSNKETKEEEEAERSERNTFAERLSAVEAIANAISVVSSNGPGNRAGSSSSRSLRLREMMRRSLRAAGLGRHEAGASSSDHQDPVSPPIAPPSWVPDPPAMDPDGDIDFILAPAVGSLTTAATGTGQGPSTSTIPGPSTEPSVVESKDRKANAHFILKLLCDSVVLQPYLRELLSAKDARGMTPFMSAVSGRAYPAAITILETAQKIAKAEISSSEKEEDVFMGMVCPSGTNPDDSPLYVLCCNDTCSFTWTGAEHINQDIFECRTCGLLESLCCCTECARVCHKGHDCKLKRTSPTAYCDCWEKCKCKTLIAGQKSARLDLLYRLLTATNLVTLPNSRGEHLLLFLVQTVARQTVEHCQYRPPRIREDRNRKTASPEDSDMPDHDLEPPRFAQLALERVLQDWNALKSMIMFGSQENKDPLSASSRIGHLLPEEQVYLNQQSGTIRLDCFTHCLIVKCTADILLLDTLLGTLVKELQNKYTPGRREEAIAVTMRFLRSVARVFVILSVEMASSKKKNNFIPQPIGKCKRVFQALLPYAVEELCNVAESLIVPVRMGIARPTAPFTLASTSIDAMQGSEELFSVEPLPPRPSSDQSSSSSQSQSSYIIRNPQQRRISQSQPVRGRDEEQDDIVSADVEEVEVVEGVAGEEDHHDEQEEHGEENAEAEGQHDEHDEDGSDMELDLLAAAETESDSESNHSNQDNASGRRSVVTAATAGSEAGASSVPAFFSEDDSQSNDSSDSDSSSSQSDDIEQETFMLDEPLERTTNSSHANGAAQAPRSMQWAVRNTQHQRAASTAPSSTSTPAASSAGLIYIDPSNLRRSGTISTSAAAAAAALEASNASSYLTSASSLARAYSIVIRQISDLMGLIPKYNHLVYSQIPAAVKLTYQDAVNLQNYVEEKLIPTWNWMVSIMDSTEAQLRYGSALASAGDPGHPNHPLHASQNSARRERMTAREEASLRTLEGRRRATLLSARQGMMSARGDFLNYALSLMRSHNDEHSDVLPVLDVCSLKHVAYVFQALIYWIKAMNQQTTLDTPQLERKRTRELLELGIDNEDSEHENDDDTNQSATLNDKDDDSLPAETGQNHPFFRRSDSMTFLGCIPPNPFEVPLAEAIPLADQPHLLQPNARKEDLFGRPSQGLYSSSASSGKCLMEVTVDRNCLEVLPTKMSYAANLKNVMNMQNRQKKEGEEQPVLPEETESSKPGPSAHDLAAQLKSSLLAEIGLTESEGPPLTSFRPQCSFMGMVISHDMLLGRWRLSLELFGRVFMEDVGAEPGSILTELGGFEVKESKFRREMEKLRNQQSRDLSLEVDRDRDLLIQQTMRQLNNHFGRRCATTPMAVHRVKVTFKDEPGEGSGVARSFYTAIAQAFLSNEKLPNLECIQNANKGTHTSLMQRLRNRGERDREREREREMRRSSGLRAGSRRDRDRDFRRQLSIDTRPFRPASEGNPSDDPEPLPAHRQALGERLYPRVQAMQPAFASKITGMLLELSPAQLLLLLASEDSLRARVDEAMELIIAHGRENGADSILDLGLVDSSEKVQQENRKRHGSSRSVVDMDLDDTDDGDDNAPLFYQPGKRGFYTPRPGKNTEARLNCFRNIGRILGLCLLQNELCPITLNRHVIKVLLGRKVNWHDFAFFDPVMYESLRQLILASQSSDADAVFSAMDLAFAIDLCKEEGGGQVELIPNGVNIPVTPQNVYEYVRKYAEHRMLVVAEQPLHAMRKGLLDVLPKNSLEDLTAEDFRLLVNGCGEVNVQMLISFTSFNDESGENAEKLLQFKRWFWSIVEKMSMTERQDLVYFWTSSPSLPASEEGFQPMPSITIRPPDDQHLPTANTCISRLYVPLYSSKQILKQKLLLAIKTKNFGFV
UniProt P49841: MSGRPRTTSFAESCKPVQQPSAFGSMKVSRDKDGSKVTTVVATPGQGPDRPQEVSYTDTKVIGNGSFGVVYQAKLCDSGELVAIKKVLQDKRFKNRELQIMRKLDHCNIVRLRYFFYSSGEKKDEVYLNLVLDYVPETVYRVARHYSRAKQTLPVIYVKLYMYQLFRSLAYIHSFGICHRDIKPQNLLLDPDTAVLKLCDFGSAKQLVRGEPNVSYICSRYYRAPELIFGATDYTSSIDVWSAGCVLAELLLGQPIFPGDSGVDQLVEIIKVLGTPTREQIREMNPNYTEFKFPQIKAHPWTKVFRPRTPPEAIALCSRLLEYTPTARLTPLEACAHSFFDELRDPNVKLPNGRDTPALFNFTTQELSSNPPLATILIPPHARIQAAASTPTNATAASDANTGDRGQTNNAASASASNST

Substance: SIRT7 T255E/S259E mutant (2E) (from UniProt Q9NRC8 1-400)
binding (FLAG-SKP2): binds
binding [5]: binds

Substance: glycogen synthase kinase 3β (endogenous) (from UniProt P49841 1-420) (enzyme)
binding (HA-SIRT7 (human) [7]): binds
binding [8]: binds

Further lines, results first:

binding (HA-SIRT7 (human) [1]): binds
Substance: Flag-GSK3β (from UniProt P49841 1-420) (enzyme)

binding [2]: binds
binding [3]: binds
binding [4]: binds
Substance: SIRT7 (endogenous) (from UniProt Q9NRC8 1-400)

binding (FLAG-SKP2): binds
binding (FLAG-UBR5): binds
binding [6]: binds
binding [5]: binds
Substance: SIRT7-WT (ectopic, tag not stated) (from UniProt Q9NRC8 1-400)

— article PMC8387475
